Experimental data from PMC7015941.
No constants are given. Whether binding was seen depends on the method and setting. Binding seen in cells or lysates may run through a third protein. Some results given as binding are weak or reduced against the parent protein; the word gives no strength.

Sequences of proteins named here, by UniProt entry; tags and fusion partners are left off.
UniProt O75832: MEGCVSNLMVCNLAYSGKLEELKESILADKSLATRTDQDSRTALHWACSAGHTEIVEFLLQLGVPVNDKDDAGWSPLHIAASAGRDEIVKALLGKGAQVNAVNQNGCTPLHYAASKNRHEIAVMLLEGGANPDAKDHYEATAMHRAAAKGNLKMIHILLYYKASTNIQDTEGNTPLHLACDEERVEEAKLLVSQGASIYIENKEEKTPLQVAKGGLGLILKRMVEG
UniProt P40763: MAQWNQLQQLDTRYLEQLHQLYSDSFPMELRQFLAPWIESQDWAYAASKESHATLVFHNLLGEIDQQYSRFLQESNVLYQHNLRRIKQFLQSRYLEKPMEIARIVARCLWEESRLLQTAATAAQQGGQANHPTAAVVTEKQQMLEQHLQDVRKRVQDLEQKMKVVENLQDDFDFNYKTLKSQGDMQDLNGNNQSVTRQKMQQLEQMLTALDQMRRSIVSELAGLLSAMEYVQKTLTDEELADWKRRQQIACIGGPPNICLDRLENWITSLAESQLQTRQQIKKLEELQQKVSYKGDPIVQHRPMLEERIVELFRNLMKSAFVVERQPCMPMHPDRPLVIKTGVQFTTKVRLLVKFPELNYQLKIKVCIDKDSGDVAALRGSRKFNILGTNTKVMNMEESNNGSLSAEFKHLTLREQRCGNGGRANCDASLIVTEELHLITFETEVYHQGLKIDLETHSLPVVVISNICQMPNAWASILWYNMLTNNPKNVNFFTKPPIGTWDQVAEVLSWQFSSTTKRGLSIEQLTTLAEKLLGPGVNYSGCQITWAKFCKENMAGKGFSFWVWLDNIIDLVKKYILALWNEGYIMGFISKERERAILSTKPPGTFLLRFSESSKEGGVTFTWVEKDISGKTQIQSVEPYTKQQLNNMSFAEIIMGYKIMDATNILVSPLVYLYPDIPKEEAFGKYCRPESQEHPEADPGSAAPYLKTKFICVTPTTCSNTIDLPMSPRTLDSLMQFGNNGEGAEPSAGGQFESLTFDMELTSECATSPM

Target: gankyrin (human (endogenous in 786-O)) (UniProt O75832)
Assay: co-IP; endogenous proteins in 786-O cells, IgG as control, detected by western blot; also in cells treated with human recombinant CCL24 (5 ng/ml, 3 days) without or with SB328437 (10 ng/ml)

STAT3 (from UniProt P40763 1-770) was tested, and the binding was “binds”.
